Results are given in words; binding and its absence hold for the method and conditions named. In cells and extracts the contact can be indirect. Some entries that bind do so weakly or less than the wild type.
Key:
[1] = target: AT1 angiotensin receptor, RLuc-labeled (AT1R–RLuc) (UniProt P25095); assay: FRET or BRET
[2] = target: AT1R as BRET partner in the AT1R–β-arrestin2–MEK/ERK2 complex formation assay (UniProt P25095); assay: FRET or BRET

Sequences of proteins named here, by UniProt entry; tags and fusion partners are left off.
UniProt P25095: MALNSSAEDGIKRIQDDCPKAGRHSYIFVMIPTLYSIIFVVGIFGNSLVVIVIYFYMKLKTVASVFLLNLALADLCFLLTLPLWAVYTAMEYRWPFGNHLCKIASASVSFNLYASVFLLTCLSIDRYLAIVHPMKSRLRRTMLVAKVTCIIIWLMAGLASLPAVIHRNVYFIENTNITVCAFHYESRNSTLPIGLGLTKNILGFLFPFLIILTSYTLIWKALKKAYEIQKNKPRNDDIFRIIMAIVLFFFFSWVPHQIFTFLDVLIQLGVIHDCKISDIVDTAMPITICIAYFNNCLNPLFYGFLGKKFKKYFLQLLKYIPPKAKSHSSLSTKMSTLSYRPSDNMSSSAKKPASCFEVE
UniProt P29067: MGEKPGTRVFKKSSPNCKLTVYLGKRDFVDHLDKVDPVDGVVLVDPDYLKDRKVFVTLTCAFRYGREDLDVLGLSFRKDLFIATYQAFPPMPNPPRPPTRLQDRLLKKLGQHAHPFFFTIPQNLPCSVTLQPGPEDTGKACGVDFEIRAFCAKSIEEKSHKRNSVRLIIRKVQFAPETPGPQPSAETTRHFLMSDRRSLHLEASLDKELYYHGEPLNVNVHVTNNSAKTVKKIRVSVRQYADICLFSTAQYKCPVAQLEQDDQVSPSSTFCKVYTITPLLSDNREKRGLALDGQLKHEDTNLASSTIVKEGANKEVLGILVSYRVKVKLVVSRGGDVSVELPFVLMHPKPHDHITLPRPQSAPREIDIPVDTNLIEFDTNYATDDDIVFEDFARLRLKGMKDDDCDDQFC
UniProt P28482: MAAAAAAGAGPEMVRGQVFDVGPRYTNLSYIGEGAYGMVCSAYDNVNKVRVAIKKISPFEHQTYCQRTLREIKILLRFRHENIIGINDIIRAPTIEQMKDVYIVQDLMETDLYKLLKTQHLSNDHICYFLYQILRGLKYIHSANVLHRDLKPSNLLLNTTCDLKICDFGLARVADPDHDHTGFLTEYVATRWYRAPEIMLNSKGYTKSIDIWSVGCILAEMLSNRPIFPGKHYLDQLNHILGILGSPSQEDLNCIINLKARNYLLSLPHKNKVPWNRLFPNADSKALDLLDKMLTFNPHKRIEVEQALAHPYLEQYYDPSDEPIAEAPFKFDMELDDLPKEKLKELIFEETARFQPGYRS
UniProt P29066: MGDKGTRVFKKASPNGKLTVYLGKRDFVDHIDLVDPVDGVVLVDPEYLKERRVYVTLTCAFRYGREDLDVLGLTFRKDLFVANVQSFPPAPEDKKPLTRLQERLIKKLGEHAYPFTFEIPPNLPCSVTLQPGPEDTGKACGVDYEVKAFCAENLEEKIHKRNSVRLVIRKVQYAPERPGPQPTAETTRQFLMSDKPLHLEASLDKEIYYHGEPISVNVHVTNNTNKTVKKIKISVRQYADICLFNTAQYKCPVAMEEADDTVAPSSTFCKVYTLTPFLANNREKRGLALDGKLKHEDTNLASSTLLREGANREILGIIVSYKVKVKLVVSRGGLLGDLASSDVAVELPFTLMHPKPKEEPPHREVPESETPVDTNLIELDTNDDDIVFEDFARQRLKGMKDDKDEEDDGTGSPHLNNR

## β-arrestin2–Venus (from UniProt P29067 1-410)
[1]
  binding: binds

## FLAG–ERK2–Venus (from UniProt P28482 1-360) (enzyme)
[2]
  binding: binds

## Venus–MEK1–FLAG (from UniProt Q02750 1-393) (enzyme)
[2]
  binding: binds

## β-arrestin1–Venus (from UniProt P29066 1-418)
[1]
  binding: binds

From doi:10.1101/2023.04.27.538587
